Results are given in words; binding and its absence hold for the method and conditions named.
What was measured:
[1] = target: T1, Alexa Fluor 488-labelled Mad2^F141A (UniProt Q13257 1-205, F141A, Alexa 488 C5 maleimide, covalent label (residue not stated)); experiment: SEC; Superdex-75 10/30 column; PBS; both purified
T1 construct: Mad2, full length, Phe141 replaced by Ala; monomeric O-Mad2 after labelling; Labelled form of m2; also called Alexa-Mad2^F141A; Alexa-488-Mad2^F141A; source: purified as described [14], labelled with Alexa 488 C5 maleimide, separated from free dye on Superdex-75

Sequences of proteins named here, by UniProt entry; tags and fusion partners are left off. A change or cut given only in a name is not applied to a line headed by its entry.
UniProt Q13257: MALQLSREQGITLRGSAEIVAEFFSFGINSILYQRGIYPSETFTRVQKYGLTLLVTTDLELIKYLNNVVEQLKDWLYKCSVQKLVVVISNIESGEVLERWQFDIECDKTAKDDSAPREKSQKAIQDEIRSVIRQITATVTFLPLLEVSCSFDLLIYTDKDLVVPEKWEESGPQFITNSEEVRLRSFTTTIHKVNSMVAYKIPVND

Full-length Mad2^F141A = target: T2, Full-length Mad2^F141A (UniProt Q13257 1-205, F141A); experiment: SEC; Superdex-75 10/30 column; PBS; both purified
T2 construct: Mad2, full length, Phe141 replaced by Ala; purified as a monomer in the open (O-Mad2) conformation; Unlabelled form; source: purified as described [14], final size-exclusion chromatography on Superdex-75 in PBS

Substance	binding [1]	binding (Full-length Mad2^F141A)
Alexa Fluor 488-labelled Mad2^F141A (from UniProt Q13257 1-205)	no binding	
Full-length Mad2^F141A (from UniProt Q13257 1-205)		no binding

Source: paper PMC2621267, “The Influence of Catalysis on Mad2 Activation Dynamics” (PLoS Biology, 2009)
